PubChem BioAssay AID1259254, NCATS, 2017
Purpose: 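Gene knock-downs that lead to re-replication, shown by excess G2 DNA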 (primary screen). Cell system: human HCT116 colorectal cancer cells. Knock-down reagent: single siRNA against human genes. Timing: 3 days. Detection: 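Nuclei stained with Hoechst and imaged; cell-cycle phase assigned by DNA content; G2 share scaled per plate, non-targeting siRNA 0%, GMNN siRNA 100%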. Reading the numbers: G2 robust z-score and G2 cells, % of GMNN control: higher = more G2 cells, more excess DNA replication. Call rule: 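Active siRNAs have a G2 robust z of 5 or more median absolute deviations over the median, which in these data means about 38% or higher of GMNN control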.
The whole screen tested about 59,000 reagents; this is a part drawn at random. About 1,550 of them (2.6%) were called active. 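G2 share is only a proxy for re-replication; each gene was hit by three separate siRNAs, and active genes were retested.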 Reagents against one gene are numbered here. Not all columns of the deposit are shown. Reagent sequences are not shown. Not given: the amount of reagent.

| G2 robust z-score | G2 cells, % of GMNN control | call | gene | reagent no. |
| --- | --- | --- | --- | --- |
| 0.462 | 6.22 | inactive | GNAZ | 1 |
| -0.865 | -3.12 | inactive | GNAZ | 2 |
| -0.524 | -0.717 | inactive | GNAZ | 3 |
| 0.757 | 8.29 | inactive | CDCA4 | 1 |
| 0.0756 | 3.5 | inactive | CDCA4 | 2 |
| 0.109 | 3.73 | inactive | CDCA4 | 3 |
| 5.21 | 39.6 | active | MRFAP1 | 1 |
| 0.692 | 7.83 | inactive | MRFAP1 | 2 |
| -0.171 | 1.77 | inactive | MRFAP1 | 3 |
| -0.379 | 0.301 | inactive | HOXD4 | 1 |
| 1.29 | 12 | inactive | HOXD4 | 2 |
| -0.393 | 0.204 | inactive | HOXD4 | 3 |
| 2.86 | 23.1 | inactive | SRGN | 1 |
| 1.32 | 12.3 | inactive | SRGN | 2 |
| 0.441 | 6.07 | inactive | SRGN | 3 |
| -0.294 | 0.901 | inactive | MGAT3 | 1 |
| -1 | -4.1 | inactive | MGAT3 | 2 |
| 2.09 | 17.7 | inactive | MGAT3 | 3 |
| -0.667 | -1.72 | inactive | UNC45A | 1 |
| 0.164 | 4.12 | inactive | UNC45A | 2 |
| 0.104 | 3.7 | inactive | UNC45A | 3 |
| -1.22 | -5.63 | inactive | NCBP2 | 1 |
| 10.5 | 77 | active | NCBP2 | 2 |
| -0.518 | -0.677 | inactive | NCBP2 | 3 |

Reprinted from the entries so far, 5 entries:
| G2 robust z-score | G2 cells, % of GMNN control | call | gene | reagent no. |
| --- | --- | --- | --- | --- |
| 2.09 | 17.7 | inactive | MGAT3 | 3 |
| -0.667 | -1.72 | inactive | UNC45A | 1 |
| 0.164 | 4.12 | inactive | UNC45A | 2 |
| 0.104 | 3.7 | inactive | UNC45A | 3 |
| -1.22 | -5.63 | inactive | NCBP2 | 1 |

Additional entries follow.
| G2 robust z-score | G2 cells, % of GMNN control | call | gene | reagent no. |
| --- | --- | --- | --- | --- |
| -0.201 | 1.55 | inactive | YJEFN3 | 1 |
| 2.45 | 20.2 | inactive | YJEFN3 | 2 |
| 0.224 | 4.54 | inactive | YJEFN3 | 3 |
| -1.23 | -5.66 | inactive | PLEKHA5 | 1 |
| -0.15 | 1.91 | inactive | PLEKHA5 | 2 |
| -0.408 | 0.0969 | inactive | PLEKHA5 | 3 |
| 3.05 | 24.4 | inactive | NCK2 | 1 |
| -0.172 | 1.76 | inactive | NCK2 | 2 |
| 0.59 | 7.12 | inactive | NCK2 | 3 |
| -1.08 | -4.61 | inactive | KREMEN2 | 1 |
| 0.332 | 5.3 | inactive | KREMEN2 | 2 |
| -0.712 | -2.04 | inactive | KREMEN2 | 3 |
| 0.183 | 4.26 | inactive | KLK6 | 1 |
| 0.935 | 9.55 | inactive | KLK6 | 2 |
| -0.609 | -1.32 | inactive | KLK6 | 3 |
| 4.88 | 37.3 | inactive | SSR1 | 1 |
| 0.476 | 6.31 | inactive | SSR1 | 2 |
| 1.95 | 16.7 | inactive | SSR1 | 3 |
| 2.27 | 18.9 | inactive | ZNF569 | 1 |
| -0.614 | -1.35 | inactive | ZNF569 | 2 |
| 0.179 | 4.23 | inactive | ZNF569 | 3 |
| -0.436 | -0.0999 | inactive | ZNF736 | 1 |
| -0.906 | -3.4 | inactive | ZNF736 | 2 |
| -0.255 | 1.17 | inactive | ZNF736 | 3 |
